From the supplement of paper PMC11006884
The list shows a part of the results, in another mix than the full data.

Sequences of proteins named here, by UniProt entry; tags and fusion partners are left off. A change or cut given only in a name is not applied to a line headed by its entry.
UniProt Q6ZRI6: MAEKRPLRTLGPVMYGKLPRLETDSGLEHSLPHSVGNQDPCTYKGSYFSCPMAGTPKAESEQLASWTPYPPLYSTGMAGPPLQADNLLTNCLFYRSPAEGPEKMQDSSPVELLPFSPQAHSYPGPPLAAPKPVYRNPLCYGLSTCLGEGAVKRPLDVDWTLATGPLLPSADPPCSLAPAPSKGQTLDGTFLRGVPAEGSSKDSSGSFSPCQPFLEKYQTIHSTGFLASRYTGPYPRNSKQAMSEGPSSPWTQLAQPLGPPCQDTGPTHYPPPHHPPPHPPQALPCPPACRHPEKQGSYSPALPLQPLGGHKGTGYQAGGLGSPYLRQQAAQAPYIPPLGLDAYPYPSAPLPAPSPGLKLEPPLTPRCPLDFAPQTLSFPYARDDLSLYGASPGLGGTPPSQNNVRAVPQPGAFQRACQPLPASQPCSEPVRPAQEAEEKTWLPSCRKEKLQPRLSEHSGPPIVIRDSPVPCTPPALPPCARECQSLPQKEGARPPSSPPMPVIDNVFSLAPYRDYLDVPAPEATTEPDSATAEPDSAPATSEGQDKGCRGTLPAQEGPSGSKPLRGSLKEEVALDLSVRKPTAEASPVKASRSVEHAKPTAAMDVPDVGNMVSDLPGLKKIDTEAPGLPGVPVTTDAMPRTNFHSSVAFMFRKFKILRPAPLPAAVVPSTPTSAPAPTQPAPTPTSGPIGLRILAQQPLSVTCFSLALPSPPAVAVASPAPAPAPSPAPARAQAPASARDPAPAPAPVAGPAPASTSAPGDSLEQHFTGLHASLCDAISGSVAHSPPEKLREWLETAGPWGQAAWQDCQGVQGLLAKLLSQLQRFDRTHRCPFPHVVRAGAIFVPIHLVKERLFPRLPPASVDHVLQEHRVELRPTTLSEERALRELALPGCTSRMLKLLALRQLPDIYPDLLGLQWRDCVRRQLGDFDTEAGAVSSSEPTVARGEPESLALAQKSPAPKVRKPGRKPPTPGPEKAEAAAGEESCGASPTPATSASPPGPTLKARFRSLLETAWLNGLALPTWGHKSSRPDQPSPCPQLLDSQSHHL
UniProt Q5T5X7: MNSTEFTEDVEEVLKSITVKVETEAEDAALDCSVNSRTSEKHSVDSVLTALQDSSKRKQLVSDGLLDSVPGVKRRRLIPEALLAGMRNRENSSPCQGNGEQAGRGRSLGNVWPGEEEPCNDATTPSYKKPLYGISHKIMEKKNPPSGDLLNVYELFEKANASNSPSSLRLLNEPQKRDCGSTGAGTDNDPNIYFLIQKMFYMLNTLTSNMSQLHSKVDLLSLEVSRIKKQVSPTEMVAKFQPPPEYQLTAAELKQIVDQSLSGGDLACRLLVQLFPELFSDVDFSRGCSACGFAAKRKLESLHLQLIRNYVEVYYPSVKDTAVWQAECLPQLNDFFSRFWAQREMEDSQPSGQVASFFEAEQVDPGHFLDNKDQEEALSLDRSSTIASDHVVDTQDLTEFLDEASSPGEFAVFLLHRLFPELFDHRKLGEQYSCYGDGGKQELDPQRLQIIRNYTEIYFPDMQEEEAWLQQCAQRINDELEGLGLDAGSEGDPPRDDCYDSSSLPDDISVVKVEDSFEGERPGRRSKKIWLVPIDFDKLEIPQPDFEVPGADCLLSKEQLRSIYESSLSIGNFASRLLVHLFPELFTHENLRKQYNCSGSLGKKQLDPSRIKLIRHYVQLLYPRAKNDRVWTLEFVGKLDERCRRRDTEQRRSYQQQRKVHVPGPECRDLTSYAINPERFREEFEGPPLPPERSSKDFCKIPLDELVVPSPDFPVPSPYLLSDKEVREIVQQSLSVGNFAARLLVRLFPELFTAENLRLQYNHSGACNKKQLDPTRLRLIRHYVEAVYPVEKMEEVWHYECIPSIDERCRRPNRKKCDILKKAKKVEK
UniProt Q6GMV3: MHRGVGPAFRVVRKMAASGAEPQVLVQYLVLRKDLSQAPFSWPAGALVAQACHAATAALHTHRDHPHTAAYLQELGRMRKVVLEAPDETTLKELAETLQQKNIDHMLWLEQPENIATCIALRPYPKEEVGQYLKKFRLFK
UniProt Q6ZU65, whole entry: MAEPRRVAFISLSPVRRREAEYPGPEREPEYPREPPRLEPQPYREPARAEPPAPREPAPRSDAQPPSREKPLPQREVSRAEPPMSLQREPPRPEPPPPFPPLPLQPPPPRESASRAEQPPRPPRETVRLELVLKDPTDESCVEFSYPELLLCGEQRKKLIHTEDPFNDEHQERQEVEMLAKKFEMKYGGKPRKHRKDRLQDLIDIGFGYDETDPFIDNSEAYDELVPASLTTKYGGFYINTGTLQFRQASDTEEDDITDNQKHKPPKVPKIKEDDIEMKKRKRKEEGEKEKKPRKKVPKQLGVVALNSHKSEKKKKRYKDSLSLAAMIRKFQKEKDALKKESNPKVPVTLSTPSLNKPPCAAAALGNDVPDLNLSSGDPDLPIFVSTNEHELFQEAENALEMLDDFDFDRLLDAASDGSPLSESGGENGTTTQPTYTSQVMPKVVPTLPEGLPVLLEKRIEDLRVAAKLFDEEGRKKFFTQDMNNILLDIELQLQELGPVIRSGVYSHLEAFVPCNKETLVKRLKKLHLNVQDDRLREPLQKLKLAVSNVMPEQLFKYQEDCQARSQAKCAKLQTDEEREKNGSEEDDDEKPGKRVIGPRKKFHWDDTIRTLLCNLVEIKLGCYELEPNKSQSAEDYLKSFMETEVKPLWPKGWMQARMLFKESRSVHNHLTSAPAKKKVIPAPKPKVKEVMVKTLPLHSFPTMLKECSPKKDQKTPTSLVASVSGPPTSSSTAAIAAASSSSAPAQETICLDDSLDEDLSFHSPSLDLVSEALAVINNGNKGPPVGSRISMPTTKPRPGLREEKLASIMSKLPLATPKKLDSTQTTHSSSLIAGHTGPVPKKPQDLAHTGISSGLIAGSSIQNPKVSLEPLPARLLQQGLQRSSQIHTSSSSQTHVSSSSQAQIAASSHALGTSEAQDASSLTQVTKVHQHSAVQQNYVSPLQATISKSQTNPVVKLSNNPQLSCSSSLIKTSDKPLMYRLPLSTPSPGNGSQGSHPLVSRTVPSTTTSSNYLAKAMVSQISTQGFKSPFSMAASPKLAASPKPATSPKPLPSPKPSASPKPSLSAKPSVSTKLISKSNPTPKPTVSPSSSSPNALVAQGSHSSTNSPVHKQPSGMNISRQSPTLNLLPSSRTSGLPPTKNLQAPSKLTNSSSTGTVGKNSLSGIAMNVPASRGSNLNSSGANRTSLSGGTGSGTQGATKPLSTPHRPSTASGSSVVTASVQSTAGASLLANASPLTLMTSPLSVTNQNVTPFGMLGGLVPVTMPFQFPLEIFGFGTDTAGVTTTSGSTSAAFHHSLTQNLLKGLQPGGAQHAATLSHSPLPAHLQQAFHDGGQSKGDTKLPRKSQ
UniProt Q6P2E9: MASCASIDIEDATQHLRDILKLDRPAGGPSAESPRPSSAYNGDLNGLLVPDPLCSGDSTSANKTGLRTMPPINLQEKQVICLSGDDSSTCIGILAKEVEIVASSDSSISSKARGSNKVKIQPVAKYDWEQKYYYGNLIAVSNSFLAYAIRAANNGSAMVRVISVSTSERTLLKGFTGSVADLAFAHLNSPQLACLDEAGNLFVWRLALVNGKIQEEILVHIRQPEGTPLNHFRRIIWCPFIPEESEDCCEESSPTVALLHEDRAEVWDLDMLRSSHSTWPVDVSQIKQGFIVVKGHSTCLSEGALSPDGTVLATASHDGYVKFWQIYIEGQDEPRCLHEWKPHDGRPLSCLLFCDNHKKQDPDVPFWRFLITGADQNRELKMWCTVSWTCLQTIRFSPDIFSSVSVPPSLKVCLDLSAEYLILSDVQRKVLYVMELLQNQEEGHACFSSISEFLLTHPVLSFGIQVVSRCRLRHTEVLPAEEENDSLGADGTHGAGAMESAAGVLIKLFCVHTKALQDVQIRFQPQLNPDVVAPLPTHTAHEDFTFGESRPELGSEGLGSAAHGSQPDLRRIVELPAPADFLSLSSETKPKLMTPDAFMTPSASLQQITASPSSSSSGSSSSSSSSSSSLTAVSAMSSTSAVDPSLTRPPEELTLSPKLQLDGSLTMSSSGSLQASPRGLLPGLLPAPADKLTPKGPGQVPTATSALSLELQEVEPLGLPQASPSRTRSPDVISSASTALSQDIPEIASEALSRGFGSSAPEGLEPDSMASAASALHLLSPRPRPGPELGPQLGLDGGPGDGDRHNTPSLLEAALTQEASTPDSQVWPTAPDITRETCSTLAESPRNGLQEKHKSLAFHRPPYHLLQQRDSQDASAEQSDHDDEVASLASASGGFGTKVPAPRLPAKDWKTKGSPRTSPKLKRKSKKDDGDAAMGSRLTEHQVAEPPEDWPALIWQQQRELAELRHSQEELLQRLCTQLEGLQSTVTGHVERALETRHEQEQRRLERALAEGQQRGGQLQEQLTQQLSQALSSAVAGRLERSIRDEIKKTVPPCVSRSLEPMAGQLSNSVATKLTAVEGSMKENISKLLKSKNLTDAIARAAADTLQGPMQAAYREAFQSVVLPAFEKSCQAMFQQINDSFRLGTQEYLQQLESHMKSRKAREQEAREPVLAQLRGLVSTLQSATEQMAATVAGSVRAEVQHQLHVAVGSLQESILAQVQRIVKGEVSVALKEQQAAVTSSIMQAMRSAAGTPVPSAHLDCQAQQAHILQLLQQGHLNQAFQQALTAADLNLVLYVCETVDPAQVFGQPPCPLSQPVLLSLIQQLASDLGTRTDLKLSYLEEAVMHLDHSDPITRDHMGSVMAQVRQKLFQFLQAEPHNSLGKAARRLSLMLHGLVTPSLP
UniProt Q5JRX3: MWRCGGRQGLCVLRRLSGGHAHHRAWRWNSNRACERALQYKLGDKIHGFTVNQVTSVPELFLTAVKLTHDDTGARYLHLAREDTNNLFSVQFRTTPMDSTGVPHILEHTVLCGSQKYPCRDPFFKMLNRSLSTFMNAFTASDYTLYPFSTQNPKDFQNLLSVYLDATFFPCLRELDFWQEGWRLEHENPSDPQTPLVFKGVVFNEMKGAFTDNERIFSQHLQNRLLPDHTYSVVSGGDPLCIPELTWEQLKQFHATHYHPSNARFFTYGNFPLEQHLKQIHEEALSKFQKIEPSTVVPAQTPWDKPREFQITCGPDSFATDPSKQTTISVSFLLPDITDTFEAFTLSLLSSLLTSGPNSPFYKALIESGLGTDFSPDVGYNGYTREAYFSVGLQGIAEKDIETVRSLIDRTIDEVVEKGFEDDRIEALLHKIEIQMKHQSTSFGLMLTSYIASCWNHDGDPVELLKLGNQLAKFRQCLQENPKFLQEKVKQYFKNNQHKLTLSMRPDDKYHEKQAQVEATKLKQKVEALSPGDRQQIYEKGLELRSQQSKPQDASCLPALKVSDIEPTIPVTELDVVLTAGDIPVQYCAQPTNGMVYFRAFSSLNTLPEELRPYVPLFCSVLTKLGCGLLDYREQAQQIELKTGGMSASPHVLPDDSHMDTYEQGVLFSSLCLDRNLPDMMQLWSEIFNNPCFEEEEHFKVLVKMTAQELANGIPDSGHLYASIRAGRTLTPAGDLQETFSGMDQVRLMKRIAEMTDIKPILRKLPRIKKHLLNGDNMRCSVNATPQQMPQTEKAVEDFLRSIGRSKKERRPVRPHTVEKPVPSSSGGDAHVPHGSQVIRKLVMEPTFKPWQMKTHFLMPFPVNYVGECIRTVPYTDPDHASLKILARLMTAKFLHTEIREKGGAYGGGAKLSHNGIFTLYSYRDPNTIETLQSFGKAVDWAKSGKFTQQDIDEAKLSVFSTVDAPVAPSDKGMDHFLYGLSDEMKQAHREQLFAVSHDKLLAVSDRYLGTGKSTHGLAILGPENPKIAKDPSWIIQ
UniProt Q6UVJ0: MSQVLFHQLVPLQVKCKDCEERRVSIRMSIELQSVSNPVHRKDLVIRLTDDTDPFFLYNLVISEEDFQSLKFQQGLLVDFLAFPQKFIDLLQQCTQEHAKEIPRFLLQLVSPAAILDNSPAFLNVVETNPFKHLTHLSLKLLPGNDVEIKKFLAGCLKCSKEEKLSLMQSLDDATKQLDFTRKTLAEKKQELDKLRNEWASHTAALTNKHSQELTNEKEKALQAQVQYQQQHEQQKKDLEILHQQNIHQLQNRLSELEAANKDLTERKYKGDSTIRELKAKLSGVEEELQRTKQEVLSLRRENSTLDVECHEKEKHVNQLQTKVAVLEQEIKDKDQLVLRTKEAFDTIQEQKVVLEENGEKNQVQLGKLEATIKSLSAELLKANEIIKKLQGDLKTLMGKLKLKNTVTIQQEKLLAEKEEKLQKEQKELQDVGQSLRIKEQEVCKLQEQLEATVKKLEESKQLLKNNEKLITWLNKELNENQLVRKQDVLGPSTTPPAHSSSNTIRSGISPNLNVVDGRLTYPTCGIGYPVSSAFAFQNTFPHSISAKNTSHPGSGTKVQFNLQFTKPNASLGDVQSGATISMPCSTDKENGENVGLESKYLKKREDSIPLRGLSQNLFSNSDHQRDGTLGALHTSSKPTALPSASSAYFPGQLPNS

The targets below were run with COC(=O)C#Cc1ccccc1 [methyl 3-phenylpropiolate] (assay: log2 ratio of iodoacetamide-alkyne labeling of the cysteine site, DMSO over compound (competition); higher = stronger covalent engagement of the cysteine by the compound, active = 1 or more). Conditions: 500 µM; treatment time 1 h; system: HEK293T cell lysate.
Procedure, shortened: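 Three replicates, each with duplicate channels, were prepared from HEK293T lysate (2 mg/mL) treated with vehicle or electrophile at 500 µM for 1 h at ambient temperature. Iodoacetamide alkyne was then applied for 1 h, and samples were clicked to sCIP-TMT reagents, pooled, trypsin-digested overnight at 37 °C, enriched on streptavidin, acid-eluted and analysed on Orbitrap Eclipse LC-MS/MS with FAIMS, with FragPipe quantification. The log2 competition ratio per cysteine is the mean control-channel divided by the mean compound-channel reporter intensity. Cysteines quantified in only one replicate were left out.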

log2 ratio of iodoacetamide-alkyne labeling, active:
C15orf39 C367 (UniProt Q6ZRI6) 1.32
FIGNL1 C200 (UniProt Q6PIW4) 1.08
ANKRD11 C1845 (UniProt Q6UB99) 1.24
BEND3 C95 (UniProt Q5T5X7) 1.11

log2 ratio of iodoacetamide-alkyne labeling, inactive:
AARS2 C596 (UniProt Q5JTZ9) -0.0384
HSDL2 C71 (UniProt Q6YN16) 0.188
ZNF746 C425 (UniProt Q6NUN9) 0.385
UniProt Q69YQ0_C79 0.787
NIPBL C419 (UniProt Q6KC79) 0.842
RBM20 C1099 (UniProt Q5T481) 0.169
UniProt Q5H9R7_C500 0.52
ALKBH5 C378 (UniProt Q6P6C2) 0.342
UniProt Q6GMV3_C118 0.0568
SLC25A24 C330 (UniProt Q6NUK1) 0.223
ARMC6 C484 (UniProt Q6NXE6) 0.144
UniProt Q6NSI4_C60 0.322
RIF1 C2169 (UniProt Q5UIP0) 0.479
DDI2 C361 (UniProt Q5TDH0) 0.232
UBN2 C966 (UniProt Q6ZU65) 0.614
MTHFD1L C906 (UniProt Q6UB35) -0.336
UniProt Q5JSZ5_C525 0.706
MTHFD1L C961 (UniProt Q6UB35) 0.83
NIPBL C661 (UniProt Q6KC79) -0.0996
DOCK11 C409 (UniProt Q5JSL3) -0.0544
RNF20 C905 (UniProt Q5VTR2) 0.383
FIP1L1 C216 (UniProt Q6UN15) 0.00352
EDC4 C976 (UniProt Q6P2E9) 0.224
PITRM1 C241 (UniProt Q5JRX3) 0.147
LARP1 C502 (UniProt Q6PKG0) 0.269
TRIM65 C500 (UniProt Q6PJ69) 0.327
UniProt Q5W5X9_C428 0.549
MIA3 C1486 (UniProt Q5JRA6) 0.142
ARHGAP17 C53 (UniProt Q68EM7) 0.283
EDC4 C1130 (UniProt Q6P2E9) 0.00439
NADSYN1 C428 (UniProt Q6IA69) 0.129
SASS6 C525 (UniProt Q6UVJ0) 0.191
CEP170 C30 (UniProt Q5SW79) 0.0235

Three successive records out of the list so far:
log2 ratio of iodoacetamide-alkyne labeling, inactive:
RNF20 C905 (UniProt Q5VTR2) 0.383
FIP1L1 C216 (UniProt Q6UN15) 0.00352
EDC4 C976 (UniProt Q6P2E9) 0.224
